Assay results published in PubChem BioAssay AID330 (DTP/NCI, 2004).
The list does not hold the whole screen: it gathers tests that were run many times, whatever their T/C, doses with no T/C, and many T/C values between a quarter and a half above the control. Other doses and runs of a compound stand elsewhere. T/C is the treated group as % of the vehicle group. Some entries give survivors of the animals treated and no T/C: the source files T/C as zero there, which appears to mark a toxic dose or a test without result, not a measured value. Some doses without a T/C left all or most animals alive at the check, yet need not have been tolerated: the source hardly ever lists a survival T/C far under the control, and the zero likely stands for such cases as well. Counts of survivors are from the toxicity check (mostly the fifth day) where no day follows; animals may have died later. Schedules are NCI's codes, read here as Q, the interval in days (D) or hours (H), X, the number of doses. Marks such as (2×) count equal records among those shown. Some doses were run more than once; their values stand side by side, smallest first. For survival time, this PubChem deposit counts one and a half times the control or more as active, and values a quarter to a half above the control carry no call in these data; other NCI protocols may use other cut-offs. Some T/C values carry the count of animals alive at the toxicity check (mostly the fifth day); without a count, all were alive then.

Tested on: P388 leukemia ip, CD2F1 mice, survival T/C
Test: NCI In Vivo Anticancer Drug Screen. Data for tumor model P388 Leukemia (intraperitoneal) in CD2F1 (CDF1) mice
Conditions: T/C endpoint: median survival time, higher T/C = longer survival
[1] = dose: 200.0 mg/kg/injection, schedule: Q04DX003 (ip), vehicle: saline
[2] = dose: 200.0 mg/kg/injection, schedule: Q01DX005 (ip), vehicle: Klucel (hydroxypropylcellulose) (HPC)
[3] = dose: 400.0 mg/kg/injection, schedule: Q04DX003 (ip), vehicle: Klucel (hydroxypropylcellulose) (HPC)
[4] = dose: 32.0 micrograms/kg/injection, schedule: Q01DX009 (ip), vehicle: saline
[5] = dose: 50.0 mg/kg/injection, schedule: Q01DX009 (ip), vehicle: saline with Tween-80
[6] = dose: 200.0 mg/kg/injection, schedule: Q01DX009 (ip), vehicle: saline with Tween-80
[7] = dose: 2.0 mg/kg/injection, schedule: Q01DX001 (ip), vehicle: water
[8] = dose: 8.0 mg/kg/injection, schedule: Q01DX001 (ip), vehicle: water
[9] = dose: 16.0 mg/kg/injection, schedule: Q01DX001 (ip), vehicle: water
[10] = dose: 200.0 mg/kg/injection, schedule: Q01DX009 (ip), vehicle: saline
[11] = dose: 200.0 mg/kg/injection, schedule: Q01DX005 (ip), vehicle: saline
[12] = dose: 100.0 mg/kg/injection, schedule: Q01DX009 (ip), vehicle: Klucel (hydroxypropylcellulose) (HPC)
[13] = dose: 200.0 mg/kg/injection, schedule: Q01DX009 (ip), vehicle: Klucel (hydroxypropylcellulose) (HPC)

With `CN(C)CCCCCC[N+](C)(C)Cc1ccc(C[N+](C)(C)CCCCCC[N+](C)(C)Cc2ccc(CCl)cc2)cc1` the survivor count (dose: 100.0 mg/kg/injection, schedule: Q04DX003 (ip), vehicle: saline) was 0 of 6, the survivor count [1] was 0 of 6 and the survivor count (dose: 400.0 mg/kg/injection, schedule: Q04DX003 (ip), vehicle: saline) was 0 of 6.
For `CC1=NN(C(C)(C)C)[Si](C)(C)C1`, the survivor count [2] was 1 of 6.
In the case of `C=C1C(=O)OC2C1C(OC(=O)/C(=C/C)CO)CC(C)(O)C1CC=C(C)C21` (configuration not stated), the survivor count (dose: 95.0 mg/kg/injection, schedule: Q01DX005 (ip), vehicle: Klucel (hydroxypropylcellulose) (HPC)) is reported as 0 of 5 and the survivor count (dose: 190.0 mg/kg/injection, schedule: Q01DX005 (ip), vehicle: Klucel (hydroxypropylcellulose) (HPC)) is reported as 0 of 5.
With `C=CCNc1ccc(C)cc1` the T/C (dose: 75.0 mg/kg/injection, schedule: Q01DX009 (ip), vehicle: saline with Tween-80) was 141 % of control.
With `O=C(O)c1ccccc1NC(c1ccccc1)c1ccc2cccnc2c1O` (configuration not stated) the T/C [3] was 139 % of control [5 of 6 alive] and the survivor count [3] was 2 of 6.
`S=c1nc[nH]c2c1ncn2C1C=CC=CC=C1` was tested, and the survivor count (dose: 200.0 mg/kg/injection, schedule: Q01DX005 (ip), vehicle: saline with Tween-80) was 1 of 6.
`C=C(C)C(=O)N(C)C(C)C(=O)OC1CC(=O)N(C)c2cc(cc(OC)c2Cl)C(OC)C(C)=C/C=C/C(OC)C2(O)CC(OC(=O)N2)C(C)C2OC12C` (configuration not stated) was tested, and the T/C (dose: 8.0 micrograms/kg/injection, schedule: Q01DX009 (ip), vehicle: saline) was 127 % of control, the T/C [4] was 145 % of control and the survivor count [4] was 5 of 6.
With `COC1C(C)OC(OC2CC(C)(O)Cc3cc4c(c(O)c32)C(=O)c2c(O)cc3c(c2C4=O)OC2OC3(C)C(OC(C)=O)C(N(C)C)C2OC(C)=O)C(OC)C1(C)OC` (configuration not stated) the T/C (dose: 3.12 mg/kg/injection, schedule: Q04DX003 (ip), vehicle: other) was 125 % of control, the T/C (dose: 6.25 mg/kg/injection, schedule: Q04DX003 (ip), vehicle: other) was 128 % of control and the T/C (dose: 12.5 mg/kg/injection, schedule: Q04DX003 (ip), vehicle: other) was 128 % of control. The T/C (dose: 25.0 mg/kg/injection, schedule: Q04DX003 (ip), vehicle: other) was 132 % of control and the T/C (dose: 50.0 mg/kg/injection, schedule: Q04DX003 (ip), vehicle: other) was 141 % of control [5 of 6 alive].
With `Nc1nc(N)c2cc(CNc3ccc(Cl)c(Cl)c3)ccc2n1` the survivor count [5] was 4 of 6, the survivor count (dose: 100.0 mg/kg/injection, schedule: Q01DX009 (ip), vehicle: saline with Tween-80) was 0 of 6 and the survivor count [6] was 0 of 6.
`CCC1=C[C@H]2CN(CCc3c([nH]c4ccccc34)[C@@](C(=O)OC)(c3cc4c(cc3OC)N(C=O)[C@H]3[C@@](O)(C(=O)OC)[C@H](OC(C)=O)[C@]5(CC)C=CCN6CC[C@]43[C@@H]65)C2)C1` was tested, and the T/C [7] was 125 % of control, the survivor count [7] was 0 of 6 and the survivor count (dose: 4.0 mg/kg/injection, schedule: Q01DX001 (ip), vehicle: water) was 0 of 6. For the same compound, the survivor count [8] was 0 of 6 and the survivor count [9] was 0 of 6.
For `Clc1ccccc1Nc1c2ccccc2nc2ccccc12`, the T/C [1] was 127 % of control.
`C(CCCSC1=NCCN1)CCSC1=NCCN1` was tested, and the survivor count [10] was 0 of 6 and the survivor count (dose: 400.0 mg/kg/injection, schedule: Q01DX009 (ip), vehicle: saline) was 0 of 6.
`CCOC(=O)C(=CNc1ccc2c(C)cc3ccc(C(=O)OCC)c(=O)n3c2n1)C(=O)OCC` was tested, and the survivor count [2] was 5 of 5.
In the case of `CC1OC2=C(C(=O)c3ccccc3C2=O)C(O)C1O` (configuration not stated), the survivor count (dose: 12.5 mg/kg/injection, schedule: Q01DX001 (ip), vehicle: Klucel (hydroxypropylcellulose) (HPC)) is reported as 6 of 6, the survivor count (dose: 25.0 mg/kg/injection, schedule: Q01DX001 (ip), vehicle: Klucel (hydroxypropylcellulose) (HPC)) is reported as 6 of 6 and the survivor count (dose: 50.0 mg/kg/injection, schedule: Q01DX001 (ip), vehicle: Klucel (hydroxypropylcellulose) (HPC)) is reported as 6 of 6. The survivor count (dose: 100.0 mg/kg/injection, schedule: Q01DX001 (ip), vehicle: Klucel (hydroxypropylcellulose) (HPC)) was 0 of 6 (2×), the survivor count (dose: 200.0 mg/kg/injection, schedule: Q01DX001 (ip), vehicle: Klucel (hydroxypropylcellulose) (HPC)) was 0 of 6 and the survivor count (dose: 400.0 mg/kg/injection, schedule: Q01DX001 (ip), vehicle: Klucel (hydroxypropylcellulose) (HPC)) was 0 of 6.
With `CCOC(=O)C(C)NO` (configuration not stated) the survivor count [10] was 6 of 6.
With `C=CC(=O)NCCSSCCNC(=O)C=C` the survivor count [5] was 5 of 6 and the survivor count [6] was 5 of 6.
With `O=c1n(-c2ccccc2)c(=O)n2n1CC(c1ccccc1)=N2` the survivor count (dose: 25.0 mg/kg/injection, schedule: Q01DX009 (ip), vehicle: other) was 6 of 6 and the survivor count (dose: 50.0 mg/kg/injection, schedule: Q01DX009 (ip), vehicle: other) was 6 of 6.
For `CCCCN(CCCC)P1(=O)OP(=O)(N(CCCC)CCCC)OP(=O)(N(CCCC)CCCC)O1` (configuration not stated), the survivor count (dose: 100.0 mg/kg/injection, schedule: Q01DX005 (ip), vehicle: saline) was 3 of 5 and the survivor count [11] was 0 of 5.
For `CN1C2CCC1C(Br)C(=O)C2` (configuration not stated), the T/C [11] was 127 and 128 % of control and the survivor count (dose: 400.0 mg/kg/injection, schedule: Q01DX005 (ip), vehicle: saline) was 0 of 6 and 1 of 6.
For `O=[N+]([O-])c1cnc(Sc2cncc[n+]2[O-])s1`, the survivor count (dose: 12.5 mg/kg/injection, schedule: Q01DX009 (ip), vehicle: Klucel (hydroxypropylcellulose) (HPC)) was 4 of 6, the survivor count (dose: 25.0 mg/kg/injection, schedule: Q01DX009 (ip), vehicle: Klucel (hydroxypropylcellulose) (HPC)) was 0 of 6 and the survivor count (dose: 50.0 mg/kg/injection, schedule: Q01DX009 (ip), vehicle: Klucel (hydroxypropylcellulose) (HPC)) was 0 of 6. For the same compound, the survivor count [12] was 0 of 6 and the survivor count [13] was 0 of 6.
With `CCCCCCCCCCCCC[N+](C)([O-])CCCCCC[N+](C)([O-])CCCCCCCCCCCCC` (configuration not stated) the survivor count [12] was 4 of 6 and the survivor count [13] was 0 of 6.
For `Nc1cc(C(F)(F)F)ccc1S`, the survivor count (dose: 12.0 mg/kg/injection, schedule: Q01DX009 (ip), vehicle: DMSO) was 6 of 6, the survivor count (dose: 25.0 mg/kg/injection, schedule: Q01DX009 (ip), vehicle: DMSO) was 3 of 6 and the survivor count (dose: 50.0 mg/kg/injection, schedule: Q01DX009 (ip), vehicle: DMSO) was 2 of 6 and 4 of 5. For the same compound, the survivor count (dose: 100.0 mg/kg/injection, schedule: Q01DX009 (ip), vehicle: DMSO) was 2 of 6 and the survivor count (dose: 200.0 mg/kg/injection, schedule: Q01DX009 (ip), vehicle: DMSO) was 0 of 6.
`O=c1nc2[nH]c3c4cccc5cccc(c3nc2c(=O)[nH]1)c54` was tested, and the survivor count [2] was 5 of 5.
For `C=CCOCN1c2cc(OC)c([C@@]3(C(=O)OC)C[C@@H]4CN(CCc5c3[nH]c3ccccc53)C[C@](O)(CC)C4)cc2[C@@]23CCN4CC=C[C@@](CC)([C@@H](OC(C)=O)[C@](O)(C(=O)OC)[C@H]12)[C@H]43`, the T/C (dose: 8.0 mg/kg/injection, schedule: Q01DX001 (ip), vehicle: other) was 133 % of control, the T/C [8] was 127 % of control and the T/C (dose: 16.0 mg/kg/injection, schedule: Q01DX001 (ip), vehicle: other) was 148 % of control. For the same compound, the T/C [9] was 134 % of control, the T/C (dose: 32.0 mg/kg/injection, schedule: Q01DX001 (ip), vehicle: water) was 139 % of control and the survivor count (dose: 64.0 mg/kg/injection, schedule: Q01DX001 (ip), vehicle: other) was 2 of 6.
`CC[C@@H]1O[C@@H]([C@@H]2CC[C@](O)([C@]3(C)CC[C@@H]([C@@H](C)[C@@]4(O)CC[C@H](C)[C@@H](C[C@@]5(O)O[C@@H]([C@@H](C)[C@H](O)C[C@H]6CC[C@H](C)[C@@H]([C@@H](C)C(=O)O)O6)CC[C@@H]5C)O4)O3)O2)CC[C@@]1(C)O` was tested, and the survivor count (dose: 0.5 mg/kg/injection, schedule: Q01DX009 (ip), vehicle: saline with Tween-80) was 5 of 6 and the survivor count (dose: 1.0 mg/kg/injection, schedule: Q01DX009 (ip), vehicle: saline with Tween-80) was 0 of 6.
For `Cc1csc(/N=C2\N/C(=N\c3nc(C)cs3)c3ccccc32)n1`, the survivor count [6] was 5 of 6.
